# Experimental data taken from patent US20220009920A1 (GB005, Inc., priority 2020, published 2022).
# Chains of the proteins cited; added tags and fusions are not shown.
# UniProt Q06187, whole entry: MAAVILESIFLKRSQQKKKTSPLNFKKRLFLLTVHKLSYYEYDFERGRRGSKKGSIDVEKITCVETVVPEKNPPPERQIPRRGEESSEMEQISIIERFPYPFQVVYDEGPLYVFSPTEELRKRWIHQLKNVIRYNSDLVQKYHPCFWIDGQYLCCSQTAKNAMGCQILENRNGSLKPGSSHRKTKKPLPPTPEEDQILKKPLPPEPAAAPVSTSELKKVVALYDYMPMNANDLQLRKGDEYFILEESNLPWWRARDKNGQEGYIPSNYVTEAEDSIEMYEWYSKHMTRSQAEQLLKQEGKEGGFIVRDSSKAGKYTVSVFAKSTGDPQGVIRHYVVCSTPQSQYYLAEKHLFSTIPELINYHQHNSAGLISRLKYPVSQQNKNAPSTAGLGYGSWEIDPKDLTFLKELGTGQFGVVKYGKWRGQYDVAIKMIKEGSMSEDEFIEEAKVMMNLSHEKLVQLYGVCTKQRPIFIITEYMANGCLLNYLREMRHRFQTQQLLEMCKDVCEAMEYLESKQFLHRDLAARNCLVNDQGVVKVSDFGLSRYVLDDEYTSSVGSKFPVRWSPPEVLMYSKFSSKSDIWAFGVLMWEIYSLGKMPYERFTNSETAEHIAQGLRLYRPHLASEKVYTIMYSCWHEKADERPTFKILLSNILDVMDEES
# pIC50: −log10 of the molar value. The match of structure and compound is tentative.
# Key:
# BTK in RAMOS B cells = test: Assay to determine BTK activity in RAMOS B cells (anti-IgM, FLIPR Calcium 6); settings: read-out: Ramos IC50, anti-IgM EC80, calcium readout
# Experimental: On the day before assay, Ramos B cells were plated in plating medium (RPMI1640 medium containing 1% FBS and 1× pencillin-streptomycin). On the day of the assay, 2× dye solution was prepared following the manual of the FLIRP Calcium 6 Assay Kit: Dilute the dye with assay buffer (20 mM HEPES in IX HBSS, pH7.4); Add probenecid to the final concentration of 5 mM; vortex vigorously for 1-2 minutes. Cells were collected by centrifuging, and the pellet was re-suspended in plating medium. After counting, cells were re-suspended at a density of 3×10^6/ml in plating medium. Equal volume of 2× dye solution was added to the cell suspension. Cells were then plated at 20 μl/well into a 384-well poly-D-lysine coated plate. Plate was centrifuged at 1000 rpm for 3 minutes and then incubated at 37° C. for 2 hours followed by an additional 15-minute incubation at 25° C. Compounds were prepared at 3× concentration in dilution buffer (20 mM HEPES and 0.1% BSA in 1×HBSS, pH 7.4). Serially diluted compound was transferred from source plate to a 384-well compound plate by using an Echo 550 (Labcyte). 20 μl/well compound dilution buffer was added to the compound plate and mixed on plate shaker for 2 mins. 4× EC80 of Anti-IgM (Jackson ImmunoResearch) was prepared in dilution buffer and 20 μl/well was added to a new 384-well compound plate. […] Plates were read for 160 sec with 1 sec interval.
# BTK = BTK (Homo sapiens, UniProt Q06187); test: Assay to determine activity against BTK; settings: read-out: BTK IC50; 1 mM ATP, 2 nM BTK, 90 minutes at room temperature
# Experimental: Solutions of compounds (test or control) in DMSO were prepared at the desired concentrations, and serially diluted to 11 concentrations by 3-fold dilution in 384pp-plate using TECAN EVO200. 20 nL of stock were transferred to 384 plate using Echo550. DMSO was used as vehicle control.
# Two separate solutions were prepared—an ATP solution containing MgCl2 (10 mM), Brij-35 (0.01%), DTT (2 mM), BSA (0.05%), EGTA (1 mM), HEPE (pH7.5) (50 mM), FLPeptide (6 uM) and ATP (4 mM); and a BTK solution containing MgCl2 (10 mM), Brij-35 (0.01%), DTT (2 mM), BSA (0.05%), EGTA (1 mM), HEPE (pH7.5) (50 mM) and BTK (2.67 nM). (BTK was obtained from Cama; FLPeptide2 was obtained from PerkinElmer and Ibrutinib was obtained from Selleck.) 5 μL of ATP solution were added to each well, followed by addition of 15 μL of BTK solution to initiate the reaction. (Note the final volume of each well was 20 μL containing MgCl2 (10 mM), Brij-35 (0.01%), DTT (2 mM), BSA (0.05%), EGTA (1 mM), HEPE (pH7.5) (50 mM), FLPeptide (1.5 uM), ATP (1 mM) and BTK (2 nM).
# The plates were incubated at room temperature for 90 minutes and then stopping buffer added (75 μL, containing 0.5 M EDTA) to terminate the reaction. Samples from each well were analyzed using EZ reader. The % remaining activity was calculated using read conversion ratio (CR) according to the equation: […]
smiles,measurement,setting,value
CC#CC(=O)N[C@H]1CCC=C(c2c(F)cc(C(N)=O)c3[nH]c4c(c23)CCCCC4)C1,pIC50,BTK in RAMOS B cells,< 7.00
same,pIC50,BTK,7.00 to 8.00
